Data taken from publication PMC11530128.
No constants are given. Whether binding was seen depends on the method and setting. In cells and extracts the contact can be indirect. Some binding calls cover weakened binding; strength is not graded here. For some of these results: Where a sequence is shown, tags or fusion partners need not be part of it.

Protein sequences, listed by entry. Tags and fused reporters are not part of them.
UniProt Q04207: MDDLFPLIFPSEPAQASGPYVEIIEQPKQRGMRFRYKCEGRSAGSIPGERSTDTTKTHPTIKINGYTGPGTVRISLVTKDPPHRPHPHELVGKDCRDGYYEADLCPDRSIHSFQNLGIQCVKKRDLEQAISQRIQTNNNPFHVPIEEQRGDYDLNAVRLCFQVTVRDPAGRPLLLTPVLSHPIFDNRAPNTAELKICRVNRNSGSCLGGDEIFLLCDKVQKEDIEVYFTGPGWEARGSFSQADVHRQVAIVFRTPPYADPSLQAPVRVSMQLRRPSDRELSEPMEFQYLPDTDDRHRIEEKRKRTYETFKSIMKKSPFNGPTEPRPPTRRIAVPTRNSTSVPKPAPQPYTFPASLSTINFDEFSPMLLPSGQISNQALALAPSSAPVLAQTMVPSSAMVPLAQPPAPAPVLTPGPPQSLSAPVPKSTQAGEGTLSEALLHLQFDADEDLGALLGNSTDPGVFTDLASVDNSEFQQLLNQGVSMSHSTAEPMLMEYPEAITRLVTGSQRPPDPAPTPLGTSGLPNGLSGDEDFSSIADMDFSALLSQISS
UniProt P42227: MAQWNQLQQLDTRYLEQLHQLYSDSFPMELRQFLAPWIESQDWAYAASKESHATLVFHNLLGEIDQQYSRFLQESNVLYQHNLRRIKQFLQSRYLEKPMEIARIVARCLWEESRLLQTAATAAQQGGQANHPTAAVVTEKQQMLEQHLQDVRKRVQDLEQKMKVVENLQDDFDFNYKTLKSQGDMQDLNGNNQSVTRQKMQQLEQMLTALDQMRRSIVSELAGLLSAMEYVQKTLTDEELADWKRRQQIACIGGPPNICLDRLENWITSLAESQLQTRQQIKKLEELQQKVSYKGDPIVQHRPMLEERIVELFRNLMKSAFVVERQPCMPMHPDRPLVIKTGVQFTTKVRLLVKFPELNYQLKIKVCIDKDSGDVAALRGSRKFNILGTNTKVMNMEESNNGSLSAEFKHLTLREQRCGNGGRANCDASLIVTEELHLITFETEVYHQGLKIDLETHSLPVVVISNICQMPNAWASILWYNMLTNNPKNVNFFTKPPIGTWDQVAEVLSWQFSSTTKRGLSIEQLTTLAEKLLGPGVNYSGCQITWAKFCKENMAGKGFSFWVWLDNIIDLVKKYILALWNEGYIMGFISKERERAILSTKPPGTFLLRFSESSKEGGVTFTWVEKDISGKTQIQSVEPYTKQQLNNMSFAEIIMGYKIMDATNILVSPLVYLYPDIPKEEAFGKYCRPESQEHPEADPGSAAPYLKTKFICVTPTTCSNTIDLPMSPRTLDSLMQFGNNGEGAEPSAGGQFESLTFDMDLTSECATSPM

Columns and labels:
[1] = molecular target: T1, Setdb2 (endogenous) (mouse (endogenous in BMDMs and whole wounds)) (UniProt Q8C267); test: co-IP; SETDB2 antibody (5 μg) on Protein G Dynabeads, RIPA lysate of BMDMs, overnight at 4°C; Western blot for RelA; BMDMs untreated or treated with the Stat3 inhibitor cryptotanshinone (1 μM), Stat3-deficient (Stat3fl/fl Lyz2Cre+) or Cre-negative, with or without IFN-β (10 U/mL, 4 hours)
T1 sequence: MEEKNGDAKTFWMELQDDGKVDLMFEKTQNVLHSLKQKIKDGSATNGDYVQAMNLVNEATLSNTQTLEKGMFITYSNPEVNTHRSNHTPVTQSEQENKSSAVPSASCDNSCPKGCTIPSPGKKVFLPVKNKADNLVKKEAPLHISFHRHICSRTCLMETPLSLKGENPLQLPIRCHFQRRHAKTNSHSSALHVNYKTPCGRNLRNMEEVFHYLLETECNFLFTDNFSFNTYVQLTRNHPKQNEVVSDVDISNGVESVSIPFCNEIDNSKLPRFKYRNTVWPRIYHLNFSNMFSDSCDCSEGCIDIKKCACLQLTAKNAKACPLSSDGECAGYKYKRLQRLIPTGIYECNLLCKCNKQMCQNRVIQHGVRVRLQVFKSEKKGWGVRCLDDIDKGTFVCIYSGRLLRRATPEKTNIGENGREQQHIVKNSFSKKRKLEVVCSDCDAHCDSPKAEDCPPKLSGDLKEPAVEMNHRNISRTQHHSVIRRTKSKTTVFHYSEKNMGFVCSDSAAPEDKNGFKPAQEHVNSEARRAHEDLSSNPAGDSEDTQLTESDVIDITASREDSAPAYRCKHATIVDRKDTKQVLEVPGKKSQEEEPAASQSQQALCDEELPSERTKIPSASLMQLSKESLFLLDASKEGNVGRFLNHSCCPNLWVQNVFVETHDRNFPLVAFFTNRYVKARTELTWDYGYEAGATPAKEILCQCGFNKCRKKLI

[2] = molecular target: T2, Recombinant GST-SETDB2 fusion protein (UniProt Q96T68); test: pull-down; 20 μg GST-SETDB2 on GST Sepharose beads, incubated with 500 μg BMDM lysate overnight at 4°C; washed 3× in RIPA buffer and 1× in TBS; Western blot; only the target purified
T2 sequence: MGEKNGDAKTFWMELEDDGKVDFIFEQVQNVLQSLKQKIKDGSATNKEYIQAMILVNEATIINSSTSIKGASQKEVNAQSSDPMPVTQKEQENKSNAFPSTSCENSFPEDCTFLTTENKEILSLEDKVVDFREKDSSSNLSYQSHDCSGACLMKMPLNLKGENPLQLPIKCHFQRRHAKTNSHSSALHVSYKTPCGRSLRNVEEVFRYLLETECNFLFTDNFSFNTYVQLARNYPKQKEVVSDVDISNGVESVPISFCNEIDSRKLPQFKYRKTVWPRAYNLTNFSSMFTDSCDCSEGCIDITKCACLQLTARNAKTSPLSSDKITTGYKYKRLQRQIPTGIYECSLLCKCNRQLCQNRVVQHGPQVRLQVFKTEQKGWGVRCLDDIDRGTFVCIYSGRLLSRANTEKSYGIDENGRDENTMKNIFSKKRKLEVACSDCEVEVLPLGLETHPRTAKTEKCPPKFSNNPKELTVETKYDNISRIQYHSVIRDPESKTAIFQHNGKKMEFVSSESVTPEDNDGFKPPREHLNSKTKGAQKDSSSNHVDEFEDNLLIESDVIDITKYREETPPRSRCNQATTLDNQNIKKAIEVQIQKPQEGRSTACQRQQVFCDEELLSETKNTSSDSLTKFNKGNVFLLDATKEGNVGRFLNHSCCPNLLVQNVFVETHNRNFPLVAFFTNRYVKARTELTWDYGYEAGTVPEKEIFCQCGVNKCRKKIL

[3] = molecular target: T1, Setdb2 (endogenous) (mouse (endogenous in BMDMs and whole wounds)); test: co-IP; SETDB2 antibody on Protein G Dynabeads, whole wound lysates of ND and DIO mice, day 5 after wounding; Western blot for Stat3

Row | Substance | binding [1] | binding [2] | binding [3]
1 | NF-κB component p65 (RELA) (from UniProt Q04207 1-549) | binds | binds | 
2 | STAT3 (from UniProt P42227 1-770) |  | binds | binds
